# Values quoted from earlier work as cited in patent US20250352568A1, “COMPOSITION OF MANGIFERIN AND PROCESS OF PREPARATION THEREOF” (ZEUSHYGIA LIFESCIENCES PVT LTD., priority 2024, published 2025).
# At least one structure is not confirmed: it was looked up by name or label, or the drawing left a doubt.
# Target: T1, catechol-O-methyltransferase (COMT) (Homo sapiens, UniProt P21964)
# T1 sequence (P21964 1-271): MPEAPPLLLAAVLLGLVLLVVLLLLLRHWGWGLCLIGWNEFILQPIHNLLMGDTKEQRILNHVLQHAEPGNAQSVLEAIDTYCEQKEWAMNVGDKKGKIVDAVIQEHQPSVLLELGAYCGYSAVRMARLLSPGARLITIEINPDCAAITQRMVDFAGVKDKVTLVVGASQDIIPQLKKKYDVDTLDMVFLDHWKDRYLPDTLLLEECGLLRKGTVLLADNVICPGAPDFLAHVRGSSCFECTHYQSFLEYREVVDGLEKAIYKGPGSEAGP
# Settings: López-Ríos et al., 2020
compound,measurement,value
O=c1c2cc(O)c(O)cc2oc2cc(O)c([C@@H]3O[C@H](CO)[C@@H](O)[C@H](O)[C@H]3O)c(O)c12 [mangiferin],COMT inhibition,significantly inhibited
